{
  "source": "patent US9427415B2",
  "about": "“Methods and compositions for modifying sensorial perception” (The Procter & Gamble Company, priority 2014, dated 2016)",
  "system": "TRPA1V1",
  "experiment": "Intracellular calcium (Fluo-4, FLIPR) activation of TRPA1V1 cells (co-expressing TRPA1 and TRPV1) by GRAS compounds;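 also: HEK293 cells co-expressing TRPA1 and TRPV1, fluorescence read at 488/514 nm after baseline subtraction, recorded every 2 s over 10 min, ionomycin 10 µM and buffer as controls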",
  "format": "cell-based, human",
  "settings": "Table 1(b); 1 mM or 100 μM (*); comparison of A1, V1 and A1V1 activation",
  "data": [
    {"smiles": "CC(O)CCc1ccccc1", "note": "(centres unmarked) [4-Phenyl-2-butanol]", "values": [
      {"measurement": "Remarks: effect of A1 and/or V1 on A1V1 response", "value": "A1 and V1 additive"}
    ]},
    {"smiles": "CC1COC(c2ccccc2)O1", "note": "(centres unmarked) [Benzaldehyde propylene glycol acetal]", "values": [
      {"measurement": "Remarks: effect of A1 and/or V1 on A1V1 response", "value": "A1 and V1 additive"}
    ]},
    {"smiles": "CCCCCC1C(=O)CCC1CC(=O)OC", "note": "(centres unmarked) [Hedione, Methyl dihydrojasmonate]", "values": [
      {"measurement": "Remarks: effect of A1 and/or V1 on A1V1 response", "value": "A1 and V1 additive"}
    ]},
    {"smiles": "COC(=O)C1CCCCC1", "note": "[Methyl cyclohexanecarboxylate]", "values": [
      {"measurement": "Remarks: effect of A1 and/or V1 on A1V1 response", "value": "A1 and V1 additive"}
    ]},
    {"smiles": "CC1=CC(=O)C(C(C)C)CC1", "note": "(centres unmarked) [Piperitone]", "values": [
      {"measurement": "Remarks: effect of A1 and/or V1 on A1V1 response", "value": "A1 and V1 additive"}
    ]},
    {"smiles": "CC(=O)OCc1ccc2c(c1)OCO2", "note": "[Piperonyl acetate]", "values": [
      {"measurement": "Remarks: effect of A1 and/or V1 on A1V1 response", "value": "A1 and V1 additive"}
    ]},
    {"smiles": "CC(C)C(=O)OCc1ccc2c(c1)OCO2", "note": "[Piperonyl isobutyrate]", "values": [
      {"measurement": "Remarks: effect of A1 and/or V1 on A1V1 response", "value": "A1 and V1 additive"}
    ]},
    {"smiles": "COc1cc(C2OCC(C)O2)ccc1O", "note": "(centres unmarked) [Vanillin propylene glycol acetal]", "values": [
      {"measurement": "Remarks: effect of A1 and/or V1 on A1V1 response", "value": "A1 and V1 additive"}
    ]}
  ]
}
